Measured data: PubChem BioAssay AID1508597 (Cure First, 2020)

- Assay: 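Knock-downs altering ovarian cancer cell survival with or without PARP inhibitor rucaparib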 (primary screen)
- Cells: human ovarian carcinoma lines grown from tumours: OCI-P5x (papillary serous) and OCI-C5x (clear cell)
- Reagent: siRNA pool against human genes, 1.25 pmol siRNA per well
- Timing: 72 h or 96 h, depending on the cell culture
- Challenge: rucaparib 20 µM (about IC30) or vehicle, present until read-out
- Rucaparib or vehicle: Rucaparib
- Cell line: OCI-C5x (clear cell)
- Measured: 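ATP luminescence measured at 72 or 96 h according to the culture, then normalised and expressed as percent viability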
- Reading the numbers: viability, normalised: higher = more viable cells remaining
- Active means: 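Active when normalised viability falls below 80 percent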
- Meaning of the calls: active = viability under 80%; inactive = viability 80% or more
This is an unselected part of the about 2,100 reagents, under one of the conditions tested. 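Calls flag viability under 80% in either arm, not effects specific to rucaparib; the reference for percent is not stated.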 Unmarked entries are inactive. A reagent listed more than once was tested more than once; the source does not tell the runs apart. Not stated in the record: the 100% reference.

{"gene knocked down": "MED18", "technical replicate": "1", "viability, normalised (%)": "40.7 (active)"}
{"gene knocked down": "MED18", "technical replicate": "2", "viability, normalised (%)": "36.8 (active)"}
{"gene knocked down": "MED18", "technical replicate": "3", "viability, normalised (%)": "42.6 (active)"}
{"gene knocked down": "HPS1", "technical replicate": "1", "viability, normalised (%)": "57.5 (active)"}
{"gene knocked down": "HPS1", "technical replicate": "2", "viability, normalised (%)": "64.1 (active)"}
{"gene knocked down": "HPS1", "technical replicate": "3", "viability, normalised (%)": "73.2 (active)"}
{"gene knocked down": "KAT8", "technical replicate": "1", "viability, normalised (%)": "42.4 (active)"}
{"gene knocked down": "KAT8", "technical replicate": "2", "viability, normalised (%)": "50.8 (active)"}
{"gene knocked down": "KAT8", "technical replicate": "3", "viability, normalised (%)": "49.1 (active)"}

Targets listed so far whose target name starts with K or k (3):
{"gene knocked down": "KAT8", "technical replicate": "1", "viability, normalised (%)": "42.4 (active)"}
{"gene knocked down": "KAT8", "technical replicate": "2", "viability, normalised (%)": "50.8 (active)"}
{"gene knocked down": "KAT8", "technical replicate": "3", "viability, normalised (%)": "49.1 (active)"}

Additional reagents follow:
{"gene knocked down": "EIF2AK3", "technical replicate": "1", "viability, normalised (%)": "64.3 (active)"}
{"gene knocked down": "EIF2AK3", "technical replicate": "2", "viability, normalised (%)": "47 (active)"}
{"gene knocked down": "EIF2AK3", "technical replicate": "3", "viability, normalised (%)": "67.7 (active)"}
{"gene knocked down": "CDYL2", "technical replicate": "1", "viability, normalised (%)": "35.9 (active)"}
{"gene knocked down": "CDYL2", "technical replicate": "2", "viability, normalised (%)": "34.4 (active)"}
{"gene knocked down": "CDYL2", "technical replicate": "3", "viability, normalised (%)": "37.8 (active)"}
{"gene knocked down": "ALPK1", "technical replicate": "1", "viability, normalised (%)": "46.8 (active)"}
{"gene knocked down": "ALPK1", "technical replicate": "1", "viability, normalised (%)": 80.1}
{"gene knocked down": "ALPK1", "technical replicate": "2", "viability, normalised (%)": "49.2 (active)"}
{"gene knocked down": "ALPK1", "technical replicate": "2", "viability, normalised (%)": "44.2 (active)"}
{"gene knocked down": "ALPK1", "technical replicate": "3", "viability, normalised (%)": "57.5 (active)"}
{"gene knocked down": "ALPK1", "technical replicate": "3", "viability, normalised (%)": "50.1 (active)"}
